This note sets out measurements from paper PMC7176872.

Amino acid sequences for entries named in this document (tags omitted).
UniProt P33242: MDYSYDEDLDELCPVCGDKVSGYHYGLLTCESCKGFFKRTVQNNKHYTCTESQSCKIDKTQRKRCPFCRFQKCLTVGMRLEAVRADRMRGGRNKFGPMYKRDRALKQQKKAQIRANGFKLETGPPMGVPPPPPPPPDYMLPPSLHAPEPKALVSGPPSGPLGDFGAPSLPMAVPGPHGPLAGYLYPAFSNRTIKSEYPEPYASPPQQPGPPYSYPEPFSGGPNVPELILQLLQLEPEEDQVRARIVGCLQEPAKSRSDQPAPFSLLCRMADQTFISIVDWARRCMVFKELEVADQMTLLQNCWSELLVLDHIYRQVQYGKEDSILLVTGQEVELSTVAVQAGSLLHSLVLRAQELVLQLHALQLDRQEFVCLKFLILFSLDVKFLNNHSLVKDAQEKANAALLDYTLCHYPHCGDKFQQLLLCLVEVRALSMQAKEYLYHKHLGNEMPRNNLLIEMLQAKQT

No constants are given. Whether binding was seen depends on the method and setting. Binding seen in cells or lysates may run through a third protein. Some binding calls cover weakened binding; strength is not graded here.

The assay has as its target Steroidogenic factor-1 (UniProt P33242). As to the kind of experiment: co-IP; immunoprecipitation; cells, bait, antibodies and buffer not told.

B1: B-box and SPRY Domain Containing Protein (protein, UniProt Q80YW5 1-473)
chain: MSADVSGTESGSESGPEPEPGPEPGPESRPESRPKPGPGPEPRPESGPEPGPRSGLRRGPKQGSERSQLCPEHFEPLSWFCLSERRPVCATCAGFGGRCHRHRIRRAEEHAEELRNKIVDQCERLQLQSAGISKYMAEVLQGKNQKAVVMASAARDLIIQRLSLVRSLCESEEQRLLEQVHGEEERAHQSILTQRAHWVDAVQKLDTLRTNMVDMITHLDDLQLIQREQEIFERAEEAEGILDPQDSEKLSFNEKCAWSPLLTQLWAASVLGSLSGVEEVLIDERTVSPLLHLSEDRRTLTFIAKKSKVCSDEPERFDHWPNALAATAFQTGLHAWIVNVKHSCAYKVGVASDQLPRKGSGNDCRLGHNAFSWVFSRYDQEFCFSHNGYHEPLPLLRCPAQLGMLLDLQAGELVFYEPASGTVLHIHRASFPQVLFPVFAVADQLISIVRGPLATVRLDSPPHHPCRSGHASR
For the molecule B1, the binding result is “binds”.
